From US9078928B2 (Institut Pasteur, priority 2011, dated 2015)

Tests used:
[1] = general procedure: Fmoc solid-phase peptide synthesis; Fmoc-Glu(tBu)-PHB-PS-resin; HATU/DIEA; conditions: whole synthesis, overall, scale of the general procedure 100 μmoles
[2] = general procedure: Fmoc solid-phase peptide synthesis; H-Ser(tBu)-2-ClTrt-PS-resin (0.78 mmole/g); Fmoc-Glu(tBu)-PHB-PS-resin (0.61 mmole/g) for E13; HATU/DIEA; conditions: for isolated yield: whole synthesis, overall, scale of the general procedure 100 μmoles

Substance | isolated yield [2] [%] | further results
NH2-(CH2)3-CO-EEEEEEEEEEEEE (N-terminal gamma-aminobutyric acid) | – | isolated yield [1]: 73%
NH2-(CH2)3-CO-S-Asu-D-Asu-S-Asu-D-Asu-F-Asu-F-D-Asu-S | 10 | –
NH2-(CH2)3-CO-S-Y-D-Y-S-Y-D-Y-S-Y-D-Y-S (SYDYSYDYSYDYS; N-terminal gamma-aminobutyric acid) | 8 | –
NH2-(CH2)3-CO-S-Y-D-Y-S-Y-D-YSO3-S-YSO3-D-YS03-S | 46 | –
NH2-(CH2)3-CO-S-YSO3-D-YSO3-S-YSO3-D-Y-S-Y-D-Y-S | 41 | –
NH2-(CH2)3-CO-S-YSO3-D-YSO3-S-YSO3-D-YSO3-S-YSO3-D-YS03-S | 4 | –
P3Asu-SATP | – | step yield ([2]; late stage modification step): 36%
